In patent publication US8598084B2, “Synergistic herbicide/insecticide composition containing certain pyridine carboxylic acids and certain insecticides” (priority 2010, dated 2013):
The name of at least one read-out is uncertain.

System: wild pansy (Viola tricolor L; VIOTR)
Assay: Postemergence herbicidal activity of mixtures, greenhouse, visual injury vs control
Assay type: in vivo
Protocol: Evaluation of Postemergence Herbicidal Activity of Mixtures in Cereal Crops
Seeds of the desired test plant species were planted in Sun Gro MetroMix® 306 planting mixture, which typically has a pH of 6.0 to 6.8 and an organic matter content of about 30 percent, in plastic pots with a surface area of 103.2 square centimeters (cm^2). When required to ensure good germination and healthy plants, a fungicide treatment and/or other chemical or physical treatment was applied. The plants were grown for 7-36 days (d) in a greenhouse with an approximate 14 hour (h) photoperiod which was maintained at about 18° C. during the day and 17° C. during the night. Nutrients and water were added on a regular basis and supplemental lighting was provided with overhead metal halide 1000-Watt lamps as necessary. The plants were employed for testing when they reached the second or third true leaf stage.
Treatments consisted of an insecticidal compound (as listed in Tables 1 through 18) and the cereal herbicide, 4-amino-3-chloro-6-(4-chloro-2-fluoro-3-methoxyphenyl)pyridine-2-carboxylic acid, alone and in combination. […]

COC(=O)c1nc(-c2ccc(Cl)c(OC)c2F)cc(N)c1Cl [Compound I Methyl ester, 4-amino-3-chloro-6-(4-chloro-2-fluoro-3-methoxyphenyl)pyridine-2-carboxylic acid methyl ester]
Ob (observed injury) (17.5 g/ha alone): 50% | Ob (observed injury) (35 g/ha alone): 51%
